Experimental data taken from PMC7471912.
No constants are given. Whether binding was seen depends on the method and setting. In cells and extracts the contact can be indirect. Some binding calls cover weakened binding; strength is not graded here.

By UniProt entry, the sequences of proteins in these tests, tags left out.
UniProt Q16665: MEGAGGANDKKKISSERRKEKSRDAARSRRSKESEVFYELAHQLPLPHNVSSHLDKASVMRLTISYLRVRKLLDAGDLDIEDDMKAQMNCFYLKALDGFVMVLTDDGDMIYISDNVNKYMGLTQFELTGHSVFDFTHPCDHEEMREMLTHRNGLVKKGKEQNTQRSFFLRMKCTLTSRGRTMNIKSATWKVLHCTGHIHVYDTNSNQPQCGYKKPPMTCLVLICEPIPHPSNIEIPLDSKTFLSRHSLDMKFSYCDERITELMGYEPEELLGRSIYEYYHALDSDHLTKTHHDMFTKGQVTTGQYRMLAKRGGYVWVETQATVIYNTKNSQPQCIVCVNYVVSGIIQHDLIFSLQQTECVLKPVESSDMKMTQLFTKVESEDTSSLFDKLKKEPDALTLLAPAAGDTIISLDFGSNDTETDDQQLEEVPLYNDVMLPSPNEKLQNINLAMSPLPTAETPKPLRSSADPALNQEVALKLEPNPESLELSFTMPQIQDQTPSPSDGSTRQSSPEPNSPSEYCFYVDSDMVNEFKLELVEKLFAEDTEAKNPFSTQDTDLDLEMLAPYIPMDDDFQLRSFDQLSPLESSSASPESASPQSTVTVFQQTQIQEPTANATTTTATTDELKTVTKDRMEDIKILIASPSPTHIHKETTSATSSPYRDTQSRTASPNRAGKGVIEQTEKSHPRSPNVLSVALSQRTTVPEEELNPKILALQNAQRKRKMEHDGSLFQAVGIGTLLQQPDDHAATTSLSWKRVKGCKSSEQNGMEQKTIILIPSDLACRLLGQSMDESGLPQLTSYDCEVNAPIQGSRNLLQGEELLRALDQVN
UniProt Q9ULZ3: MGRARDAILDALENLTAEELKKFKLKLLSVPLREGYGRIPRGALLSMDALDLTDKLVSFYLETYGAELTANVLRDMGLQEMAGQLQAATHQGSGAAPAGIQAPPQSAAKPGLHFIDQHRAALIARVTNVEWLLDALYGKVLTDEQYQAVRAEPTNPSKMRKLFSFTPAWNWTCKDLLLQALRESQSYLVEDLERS

What was measured:
[1] = molecular target: HIF-1α (human (endogenous in SAS)) (UniProt Q16665); test: co-IP; total cell extracts of SAS_ASC cells under normoxia, immunoprecipitated with anti-HIF-1α, Western blot with anti-HIF-1α and anti-ASC
[2] = molecular target: HIF-1α (human (endogenous in SAS)) (UniProt Q16665); test: co-IP; extracts from cytoplasmic and nuclear fractions of SAS_ASC cells, immunoprecipitated with anti-HIF-1α, Western blot with anti-ASC; HDAC1 as nucleus-specific marker

binding [1]: binds
binding [2]: binds
Substance: Apoptosis-associated speck-like protein containing a CARD (from UniProt Q9ULZ3 1-195)
